Data source: PubChem BioAssay AID1259308 (NCATS, 2017)

- Test: 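Knock-downs that increase output of a recombinant reporter protein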 (primary screen)
- System: human HEK293 embryonic kidney cells stably expressing firefly luciferase (HEK-CMV-Luc2-Hygro)
- Reagent: single siRNA against human genes, 0.8 pmol siRNA per well
- Duration: 72 h
- Measured: 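Luciferase light (ONE-Glo) measured on one replicate plate set and viability (CellTiter-Glo) on the other, scaled to a negative control siRNA, with robust z-scores and luciferase per cell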
- Direction: total luciferase, z-score and total luciferase, % of control: higher = more reporter protein produced; luciferase per cell, z-score: higher = more reporter output per viable cell; viable cells, % of control: higher = more viable cells
- Active means: 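Active when the median/MAD z-score for overall luciferase is greater than 3; a gene was taken forward for validation with new siRNAs if at least two of its three siRNAs passed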
- Calls: active = raised luciferase; inactive = no rise
The deposit covers about 59,000 reagents; shown is an unselected part. About 1,510 of them (2.6%) count as active. 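Calls use total luciferase alone and ignore viability, so some active siRNAs may act by altering cell number.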 The numbers tell different reagents against one gene apart.

gene knocked down	reagent no.	total luciferase, z-score	total luciferase, % of control	luciferase per cell, z-score	viable cells, % of control	activity call
DNAJC19 (DnaJ heat shock protein family (Hsp40) member C19)	1	-1.55	51	-1.34	81.1	inactive
DNAJC19 (DnaJ heat shock protein family (Hsp40) member C19)	2	-0.164	78.6	0.381	79.5	inactive
DNAJC19 (DnaJ heat shock protein family (Hsp40) member C19)	3	0.442	90.7	0.846	81.1	inactive
PTP4A2 (protein tyrosine phosphatase 4A2)	1	2.21	126	2.09	81.2	inactive
PTP4A2 (protein tyrosine phosphatase 4A2)	2	-0.876	64.5	-1.33	102	inactive
PTP4A2 (protein tyrosine phosphatase 4A2)	3	2.16	125	0.878	111	inactive
LRP1B (LDL receptor related protein 1B)	1	-1.53	51.5	-1.4	83.2	inactive
LRP1B (LDL receptor related protein 1B)	2	-0.285	76.2	-0.11	87.7	inactive
LRP1B (LDL receptor related protein 1B)	3	-0.152	78.9	-0.244	94	inactive
PHOX2B (paired like homeobox 2B)	1	0.209	86	0.317	88.5	inactive
PHOX2B (paired like homeobox 2B)	2	-0.161	78.7	0.498	77.1	inactive
PHOX2B (paired like homeobox 2B)	3	0.569	93.2	-0.242	111	inactive
C2orf80 (chromosome 2 open reading frame 80)	1	-2.62	29.9	-0.572	38.8	inactive
C2orf80 (chromosome 2 open reading frame 80)	2	-1.21	57.8	-0.775	79.2	inactive
C2orf80 (chromosome 2 open reading frame 80)	3	-0.389	74.1	-0.34	90.6	inactive
LRPAP1 (LDL receptor related protein associated protein 1)	1	-0.539	71.2	-0.332	86.8	inactive
LRPAP1 (LDL receptor related protein associated protein 1)	2	2.35	129	3.32	60	inactive
LRPAP1 (LDL receptor related protein associated protein 1)	3	1.97	121	1.36	94.4	inactive
C11orf97 (chromosome 11 open reading frame 97)	1	1.34	109	1.96	72.3	inactive
C11orf97 (chromosome 11 open reading frame 97)	2	1.08	103	0.65	97.3	inactive
C11orf97 (chromosome 11 open reading frame 97)	3	-0.168	78.5	-0.266	94.1	inactive
DTX4 (deltex E3 ubiquitin ligase 4)	1	-0.622	69.5	-0.173	81.3	inactive
DTX4 (deltex E3 ubiquitin ligase 4)	2	-0.374	74.5	-0.272	89.4	inactive
DTX4 (deltex E3 ubiquitin ligase 4)	3	0.862	99	0.629	93.8	inactive
PLPPR4 (phospholipid phosphatase related 4)	1	2.44	130	1.36	102	inactive
PLPPR4 (phospholipid phosphatase related 4)	2	-2.05	41	-2.57	90.1	inactive
PLPPR4 (phospholipid phosphatase related 4)	3	-0.173	78.4	-0.399	97.4	inactive
ANG (angiogenin)	1	-1.26	56.7	-1.83	103	inactive
ANG (angiogenin)	2	-0.212	77.7	-0.615	102	inactive
ANG (angiogenin)	3	-0.95	63	-1.18	96	inactive
ARGLU1 (arginine and glutamate rich 1)	1	1.94	120	1.49	90.8	inactive
ARGLU1 (arginine and glutamate rich 1)	2	-1.44	53.2	-0.95	76.4	inactive
ARGLU1 (arginine and glutamate rich 1)	3	1.9	120	4.3	43	inactive
LOC728999 (retired record)	1	0.917	100	2.21	62.5	inactive
LOC728999 (retired record)	2	4.82	178	2.99	90.4	active
LOC728999 (retired record)	3	-0.511	71.7	-0.783	98.5	inactive
SLC27A5	1	-0.604	69.9	-0.774	95.7	inactive
SLC27A5	2	1.55	113	1.49	85.1	inactive
SLC27A5	3	3.87	159	2.58	90	active
PGAM2 (phosphoglycerate mutase 2)	1	-2.24	37.3	-0.043	42.1	inactive
PGAM2 (phosphoglycerate mutase 2)	2	-0.0875	80.1	0.105	87.1	inactive
PGAM2 (phosphoglycerate mutase 2)	3	0.289	87.6	0.016	97.5	inactive
PNOC (prepronociceptin)	1	1.49	112	0.994	96	inactive
PNOC (prepronociceptin)	2	0.28	87.4	0.0594	96.2	inactive
PNOC (prepronociceptin)	3	1.54	113	0.772	103	inactive
ZNF200 (zinc finger protein 200)	1	0.425	90.3	0.294	93.4	inactive
ZNF200 (zinc finger protein 200)	2	1.42	110	3.08	54.7	inactive
ZNF200 (zinc finger protein 200)	3	-0.872	64.5	1.1	54	inactive
DNAJB11 (DnaJ heat shock protein family (Hsp40) member B11)	1	-0.268	76.6	-0.361	94.1	inactive
DNAJB11 (DnaJ heat shock protein family (Hsp40) member B11)	2	-0.498	72	-0.56	93.2	inactive
DNAJB11 (DnaJ heat shock protein family (Hsp40) member B11)	3	-0.875	64.5	-1.04	94.7	inactive
AMT (aminomethyltransferase)	1	-1.01	61.9	-0.834	86.1	inactive
AMT (aminomethyltransferase)	2	0.487	91.6	1.18	75	inactive
AMT (aminomethyltransferase)	3	0.82	98.2	0.539	95.2	inactive
DDX39B (DExD-box helicase 39B)	1	-0.864	64.7	-1.37	104	inactive
DDX39B (DExD-box helicase 39B)	2	-1.32	55.6	-1.11	83.3	inactive
DDX39B (DExD-box helicase 39B)	3	1.59	113	2.06	73.7	inactive

7 entries from above in another layout.
gene knocked down,reagent no.,"total luciferase, z-score","total luciferase, % of control","luciferase per cell, z-score","viable cells, % of control",activity call
LRP1B (LDL receptor related protein 1B),3,-0.152,78.9,-0.244,94,inactive
PHOX2B (paired like homeobox 2B),1,0.209,86,0.317,88.5,inactive
PHOX2B (paired like homeobox 2B),2,-0.161,78.7,0.498,77.1,inactive
PHOX2B (paired like homeobox 2B),3,0.569,93.2,-0.242,111,inactive
C2orf80 (chromosome 2 open reading frame 80),1,-2.62,29.9,-0.572,38.8,inactive
C2orf80 (chromosome 2 open reading frame 80),2,-1.21,57.8,-0.775,79.2,inactive
C2orf80 (chromosome 2 open reading frame 80),3,-0.389,74.1,-0.34,90.6,inactive
